Measured values published in the supplement of paper PMC10849652.
This is one part of the list.

Chains of the proteins cited; added tags and fusions are not shown. Lines headed by an entry give the natural chain unless they say otherwise; changes in a name come on top.
UniProt Q9BRK3: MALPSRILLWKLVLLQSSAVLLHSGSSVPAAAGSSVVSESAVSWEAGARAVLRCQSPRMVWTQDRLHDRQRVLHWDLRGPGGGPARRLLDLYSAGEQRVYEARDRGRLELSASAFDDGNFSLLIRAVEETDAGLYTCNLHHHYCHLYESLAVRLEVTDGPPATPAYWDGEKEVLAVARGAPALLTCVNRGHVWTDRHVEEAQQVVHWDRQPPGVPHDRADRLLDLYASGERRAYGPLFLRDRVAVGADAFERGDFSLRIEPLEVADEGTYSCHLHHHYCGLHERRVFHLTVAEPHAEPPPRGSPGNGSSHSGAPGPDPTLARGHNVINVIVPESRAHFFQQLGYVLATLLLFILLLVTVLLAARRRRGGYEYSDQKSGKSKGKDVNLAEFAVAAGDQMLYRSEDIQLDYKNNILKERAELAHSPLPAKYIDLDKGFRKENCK
UniProt Q9NXD2: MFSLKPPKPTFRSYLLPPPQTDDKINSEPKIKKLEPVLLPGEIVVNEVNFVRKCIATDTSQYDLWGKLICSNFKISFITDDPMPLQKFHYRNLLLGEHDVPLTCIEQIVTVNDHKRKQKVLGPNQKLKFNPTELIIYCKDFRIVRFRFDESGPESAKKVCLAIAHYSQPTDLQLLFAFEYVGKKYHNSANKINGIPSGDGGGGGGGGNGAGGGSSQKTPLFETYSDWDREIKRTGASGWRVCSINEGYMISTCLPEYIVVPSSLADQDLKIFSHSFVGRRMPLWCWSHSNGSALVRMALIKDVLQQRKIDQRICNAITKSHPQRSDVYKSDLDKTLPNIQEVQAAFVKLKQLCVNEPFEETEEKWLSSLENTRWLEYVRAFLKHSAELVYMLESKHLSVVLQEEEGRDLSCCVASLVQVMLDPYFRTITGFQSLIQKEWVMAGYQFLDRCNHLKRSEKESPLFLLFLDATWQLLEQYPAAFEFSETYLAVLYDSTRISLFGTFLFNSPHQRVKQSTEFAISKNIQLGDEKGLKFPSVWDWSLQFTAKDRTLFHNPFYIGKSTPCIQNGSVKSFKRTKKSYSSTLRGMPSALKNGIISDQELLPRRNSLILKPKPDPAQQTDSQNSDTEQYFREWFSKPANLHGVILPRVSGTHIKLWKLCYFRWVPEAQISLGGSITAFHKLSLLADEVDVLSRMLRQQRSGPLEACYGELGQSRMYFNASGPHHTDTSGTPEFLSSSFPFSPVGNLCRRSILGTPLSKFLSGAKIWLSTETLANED
UniProt Q9H019: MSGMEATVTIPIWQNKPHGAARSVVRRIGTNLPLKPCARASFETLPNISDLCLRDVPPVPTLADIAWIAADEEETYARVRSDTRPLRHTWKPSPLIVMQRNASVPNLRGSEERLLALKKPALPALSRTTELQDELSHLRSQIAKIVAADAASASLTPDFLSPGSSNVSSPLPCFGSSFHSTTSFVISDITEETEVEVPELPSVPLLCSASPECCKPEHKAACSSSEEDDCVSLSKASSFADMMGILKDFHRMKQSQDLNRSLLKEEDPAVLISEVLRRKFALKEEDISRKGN
UniProt Q8NCE2: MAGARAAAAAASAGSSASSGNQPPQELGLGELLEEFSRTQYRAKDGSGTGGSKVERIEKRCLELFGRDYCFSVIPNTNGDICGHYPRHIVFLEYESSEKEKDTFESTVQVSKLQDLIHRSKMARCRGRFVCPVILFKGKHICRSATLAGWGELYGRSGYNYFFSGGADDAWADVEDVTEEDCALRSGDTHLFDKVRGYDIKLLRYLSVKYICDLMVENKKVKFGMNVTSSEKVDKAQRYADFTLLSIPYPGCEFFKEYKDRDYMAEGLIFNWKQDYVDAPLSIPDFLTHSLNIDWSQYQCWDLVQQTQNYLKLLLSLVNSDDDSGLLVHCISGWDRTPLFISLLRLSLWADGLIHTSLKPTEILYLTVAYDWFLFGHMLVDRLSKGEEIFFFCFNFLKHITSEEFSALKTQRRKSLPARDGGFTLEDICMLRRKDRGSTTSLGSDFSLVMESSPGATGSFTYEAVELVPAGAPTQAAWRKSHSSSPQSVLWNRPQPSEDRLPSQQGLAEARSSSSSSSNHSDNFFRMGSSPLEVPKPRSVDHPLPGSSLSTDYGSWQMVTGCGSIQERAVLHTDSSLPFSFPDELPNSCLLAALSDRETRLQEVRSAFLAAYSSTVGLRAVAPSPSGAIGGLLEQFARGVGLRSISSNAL
UniProt Q2M296: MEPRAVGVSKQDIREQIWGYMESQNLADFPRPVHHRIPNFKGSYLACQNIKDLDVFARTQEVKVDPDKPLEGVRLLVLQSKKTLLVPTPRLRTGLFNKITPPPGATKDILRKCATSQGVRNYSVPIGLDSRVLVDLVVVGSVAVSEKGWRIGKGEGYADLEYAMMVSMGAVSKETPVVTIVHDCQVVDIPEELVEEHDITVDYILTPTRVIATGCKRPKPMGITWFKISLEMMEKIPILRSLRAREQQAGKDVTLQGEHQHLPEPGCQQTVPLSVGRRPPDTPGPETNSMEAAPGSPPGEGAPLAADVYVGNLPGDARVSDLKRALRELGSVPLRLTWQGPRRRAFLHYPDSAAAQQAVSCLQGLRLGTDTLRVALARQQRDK
UniProt P52701: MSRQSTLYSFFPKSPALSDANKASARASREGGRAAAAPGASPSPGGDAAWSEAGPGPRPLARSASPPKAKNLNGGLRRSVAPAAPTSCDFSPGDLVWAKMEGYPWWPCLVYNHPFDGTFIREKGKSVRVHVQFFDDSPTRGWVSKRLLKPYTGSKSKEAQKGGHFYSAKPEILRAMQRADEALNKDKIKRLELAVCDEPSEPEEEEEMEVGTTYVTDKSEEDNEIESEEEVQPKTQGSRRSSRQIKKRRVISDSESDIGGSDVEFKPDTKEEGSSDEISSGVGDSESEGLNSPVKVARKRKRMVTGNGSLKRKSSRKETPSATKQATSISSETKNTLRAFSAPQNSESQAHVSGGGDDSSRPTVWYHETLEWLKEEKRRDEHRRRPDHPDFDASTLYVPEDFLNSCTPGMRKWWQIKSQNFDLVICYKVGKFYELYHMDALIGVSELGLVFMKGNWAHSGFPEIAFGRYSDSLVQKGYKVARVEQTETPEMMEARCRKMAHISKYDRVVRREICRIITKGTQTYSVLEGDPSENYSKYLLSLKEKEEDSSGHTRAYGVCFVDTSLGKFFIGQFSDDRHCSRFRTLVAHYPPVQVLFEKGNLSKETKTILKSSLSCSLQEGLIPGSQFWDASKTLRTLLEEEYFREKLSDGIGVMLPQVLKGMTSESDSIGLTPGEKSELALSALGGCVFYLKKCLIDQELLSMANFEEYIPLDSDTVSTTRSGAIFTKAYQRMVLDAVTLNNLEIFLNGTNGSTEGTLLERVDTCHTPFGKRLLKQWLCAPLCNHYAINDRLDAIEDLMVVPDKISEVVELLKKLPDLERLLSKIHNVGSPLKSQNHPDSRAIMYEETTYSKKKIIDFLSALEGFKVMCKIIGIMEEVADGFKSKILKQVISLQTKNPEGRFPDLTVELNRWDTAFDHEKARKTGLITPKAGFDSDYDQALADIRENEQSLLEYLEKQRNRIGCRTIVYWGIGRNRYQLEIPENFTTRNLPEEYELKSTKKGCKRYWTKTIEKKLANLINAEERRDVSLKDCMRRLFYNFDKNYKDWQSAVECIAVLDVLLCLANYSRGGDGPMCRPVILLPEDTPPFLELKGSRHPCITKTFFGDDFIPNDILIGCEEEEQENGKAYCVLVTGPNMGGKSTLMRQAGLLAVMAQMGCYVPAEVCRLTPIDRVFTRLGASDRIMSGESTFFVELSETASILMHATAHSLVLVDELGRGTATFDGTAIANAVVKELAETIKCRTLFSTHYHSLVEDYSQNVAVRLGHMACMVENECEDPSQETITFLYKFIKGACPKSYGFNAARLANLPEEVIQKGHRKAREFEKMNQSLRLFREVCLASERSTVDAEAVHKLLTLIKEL
UniProt P35749, whole entry, looked up: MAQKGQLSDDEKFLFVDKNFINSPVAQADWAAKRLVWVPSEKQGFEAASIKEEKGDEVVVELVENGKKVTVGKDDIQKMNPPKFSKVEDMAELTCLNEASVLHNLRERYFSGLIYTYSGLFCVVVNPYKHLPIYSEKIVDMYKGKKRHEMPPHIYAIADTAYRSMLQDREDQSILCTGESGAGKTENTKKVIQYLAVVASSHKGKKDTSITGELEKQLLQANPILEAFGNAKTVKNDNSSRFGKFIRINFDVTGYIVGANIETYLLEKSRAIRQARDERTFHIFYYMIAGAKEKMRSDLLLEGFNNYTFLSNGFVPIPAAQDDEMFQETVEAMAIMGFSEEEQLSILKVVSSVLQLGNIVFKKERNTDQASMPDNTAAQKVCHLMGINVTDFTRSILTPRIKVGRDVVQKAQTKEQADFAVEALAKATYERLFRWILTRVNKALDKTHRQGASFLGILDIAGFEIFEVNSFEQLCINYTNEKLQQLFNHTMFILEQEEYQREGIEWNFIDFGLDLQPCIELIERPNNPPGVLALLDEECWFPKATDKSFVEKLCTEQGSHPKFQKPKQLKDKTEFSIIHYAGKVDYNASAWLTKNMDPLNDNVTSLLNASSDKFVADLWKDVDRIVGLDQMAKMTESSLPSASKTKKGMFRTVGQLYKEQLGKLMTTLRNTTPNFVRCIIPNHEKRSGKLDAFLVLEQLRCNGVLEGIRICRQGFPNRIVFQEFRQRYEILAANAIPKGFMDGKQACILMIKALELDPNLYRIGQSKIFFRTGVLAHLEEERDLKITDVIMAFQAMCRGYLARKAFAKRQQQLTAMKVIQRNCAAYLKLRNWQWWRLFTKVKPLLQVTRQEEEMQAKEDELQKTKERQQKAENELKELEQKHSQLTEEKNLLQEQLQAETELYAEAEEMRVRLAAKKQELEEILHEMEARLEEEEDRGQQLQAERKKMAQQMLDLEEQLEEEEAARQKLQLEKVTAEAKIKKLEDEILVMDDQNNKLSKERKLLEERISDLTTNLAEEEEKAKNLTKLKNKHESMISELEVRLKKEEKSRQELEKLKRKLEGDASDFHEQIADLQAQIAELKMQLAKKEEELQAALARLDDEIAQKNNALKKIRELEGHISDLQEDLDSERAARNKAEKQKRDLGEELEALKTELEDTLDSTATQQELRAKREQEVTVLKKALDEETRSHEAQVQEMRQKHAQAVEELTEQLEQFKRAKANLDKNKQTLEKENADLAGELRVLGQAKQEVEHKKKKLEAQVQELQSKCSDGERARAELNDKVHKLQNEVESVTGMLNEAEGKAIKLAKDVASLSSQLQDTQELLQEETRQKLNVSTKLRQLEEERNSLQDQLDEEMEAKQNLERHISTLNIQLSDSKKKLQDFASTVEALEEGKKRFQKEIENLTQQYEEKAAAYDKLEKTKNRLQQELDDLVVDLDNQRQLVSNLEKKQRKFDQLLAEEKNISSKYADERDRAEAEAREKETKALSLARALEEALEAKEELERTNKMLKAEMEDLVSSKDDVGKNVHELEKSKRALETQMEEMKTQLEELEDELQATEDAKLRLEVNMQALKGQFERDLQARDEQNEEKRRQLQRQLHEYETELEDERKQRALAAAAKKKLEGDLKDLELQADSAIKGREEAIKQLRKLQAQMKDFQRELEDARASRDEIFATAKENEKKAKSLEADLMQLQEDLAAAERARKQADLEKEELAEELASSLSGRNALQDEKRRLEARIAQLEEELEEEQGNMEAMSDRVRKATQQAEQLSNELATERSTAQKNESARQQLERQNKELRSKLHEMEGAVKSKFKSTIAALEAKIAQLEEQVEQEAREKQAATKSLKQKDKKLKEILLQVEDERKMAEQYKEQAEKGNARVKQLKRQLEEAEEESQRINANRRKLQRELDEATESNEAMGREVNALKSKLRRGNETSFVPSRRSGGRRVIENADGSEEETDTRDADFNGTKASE
UniProt P03928: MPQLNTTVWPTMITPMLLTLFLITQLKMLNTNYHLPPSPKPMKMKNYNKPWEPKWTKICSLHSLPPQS
UniProt Q68DK7: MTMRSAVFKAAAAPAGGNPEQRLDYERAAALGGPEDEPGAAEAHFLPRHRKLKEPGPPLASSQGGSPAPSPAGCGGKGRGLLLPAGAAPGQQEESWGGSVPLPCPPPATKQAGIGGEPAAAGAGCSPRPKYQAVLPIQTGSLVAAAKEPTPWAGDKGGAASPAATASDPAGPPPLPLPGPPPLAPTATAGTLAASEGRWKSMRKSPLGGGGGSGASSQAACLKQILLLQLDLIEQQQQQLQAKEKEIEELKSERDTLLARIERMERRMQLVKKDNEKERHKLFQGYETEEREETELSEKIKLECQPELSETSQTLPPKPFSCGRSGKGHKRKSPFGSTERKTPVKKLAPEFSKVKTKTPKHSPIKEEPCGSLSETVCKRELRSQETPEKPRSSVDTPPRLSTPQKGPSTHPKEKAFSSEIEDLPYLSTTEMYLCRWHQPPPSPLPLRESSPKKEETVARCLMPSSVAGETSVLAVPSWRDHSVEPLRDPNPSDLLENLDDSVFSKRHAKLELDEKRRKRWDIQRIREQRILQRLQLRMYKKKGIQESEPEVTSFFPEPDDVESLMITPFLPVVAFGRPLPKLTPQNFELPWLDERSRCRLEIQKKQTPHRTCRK

How the values were obtained:
Test in all cases: log2 fold change, soluble protein after heating vs DMSO (PISA); higher = thermal stabilisation; K562 cells, 10 uM, 30 min; active = over 0.2 and 3.5 SD of the protein, either way, in both replicates (recomputed)
[1] = compound: CS(=O)(=O)c1ccc(-c2cnc(N)c(C(=O)Nc3ccccc3)n2)cc1
How it was run: (§1)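 K562 cells at 2×10^6 cells/mL were treated with 10 μM compound for 30 min. Aliquots were heated for 3 min across 48°C-58°C, pooled, and extracted in PBS with 0.5% NP-40 at 4°C; soluble protein was the supernatant after 21,000xg for 90 min. Soluble protein was quantified by TMTpro 16plex LC-MS/MS with channel sums equalised, and reported as log2 fold change in thermal stability against DMSO controls, with values from duplicates.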

[2] = compound: C[C@@H](Oc1cc(-c2cnn(C3CCNCC3)c2)cnc1N)c1c(Cl)ccc(F)c1Cl [crizotinib]
How it was run: as §1

[3] = compound: C[C@@H]1COCCN1C2=NC(=NC(=C2)C3(CC3)S(=O)(=O)C)C4=C5C=CNC5=CC=C4
How it was run: as §1

[4] = compound: C[C@H](C1=CC=C(C=C1)C(=O)NC2=C3C=CNC3=NC=C2)N
How it was run: as §1

[5] = compound: Cc1cc(Nc2cc(CN3CCOCC3)c3nc(C)c(Cc4ccc(Cl)cc4F)n3n2)n[nH]1 [gandotinib]
How it was run: as §1

[6] = compound: Cc1cc(SCc2sc(-c3ccc(C(F)(F)F)cc3)nc2C)ccc1OCC(=O)O
How it was run: as §1

[7] = compound: Cc1ccc(-n2nc(C(C)(C)C)cc2NC(=O)Nc2ccc(OCCN3CCOCC3)c3ccccc23)cc1 [doramapimod]
How it was run: as §1

[8] = compound: Cc1ccc(C(=O)N(CCCN)[C@@H](c2nc3cc(Cl)ccc3c(=O)n2Cc2ccccc2)C(C)C)cc1 [ispinesib]
How it was run: as §1

[9] = compound: Cc1cc(Nc2cc(N3CCN(C)CC3)nc(Sc3ccc(NC(=O)C4CC4)cc3)n2)n[nH]1 [tozasertib]
How it was run: as §1

[10] = compound: C[C@H](Nc1ncnc2nc[nH]c12)c1cc2cccc(Cl)c2c(=O)n1-c1ccccc1 [duvelisib]
How it was run: as §1

Target	log2 fold change [1]	log2 fold change [2]	log2 fold change [3]	log2 fold change [4]	log2 fold change [5]	log2 fold change [6]	log2 fold change [7]	log2 fold change [8]	log2 fold change [9]	log2 fold change [10]
MTOR (UniProt P42345)	inactive: 0.003	inactive: -0.23	inactive: 0.08	inactive: 0.06	inactive: -0.138	inactive: 0.024	inactive: 0.001	inactive: -0.184	–	–
MXRA7 (UniProt P84157)	inactive: 0.043	inactive: -0.012	inactive: 0.051	inactive: -0.138	inactive: -0.122	inactive: 0.047	inactive: 0.035	inactive: 0.103	–	–
MYL12B (UniProt O14950)	inactive: -0.016	inactive: -0.004	inactive: 0.019	active: -0.32	inactive: 0.058	inactive: -0.003	inactive: 0.025	inactive: 0.097	–	–
MXRA8 isoform 2 (UniProt Q9BRK3)	inactive: 0.078	inactive: 0.071	inactive: 0.311	inactive: 0.035	–	–	inactive: 0.054	inactive: 0.048	inactive: 0.012	–
MTMR10 (UniProt Q9NXD2)	inactive: -0.015	inactive: 0.011	inactive: 0.327	–	–	–	inactive: 0.086	–	–	–
MRPS22 (UniProt P82650)	inactive: -0.014	inactive: 0.037	inactive: 0.086	inactive: 0.055	inactive: 0.008	inactive: 0.081	inactive: 0.002	active: -0.258	–	–
MRPS24 (UniProt Q96EL2)	inactive: 0.014	inactive: -0.031	inactive: 0.192	inactive: 0.082	inactive: -0.117	inactive: 0.094	inactive: -0.028	active: -0.427	–	–
MRPS21 (UniProt P82921)	inactive: 0.146	inactive: -0.128	inactive: 0.07	inactive: 0.209	–	inactive: 0.16	inactive: 0.037	inactive: -0.239	–	–
MRPS15 (UniProt P82914)	inactive: 0.09	inactive: -0.092	inactive: 0.022	inactive: 0.072	inactive: -0.053	inactive: 0.067	inactive: 0.042	active: -0.318	–	–
MTFR1L (UniProt Q9H019)	inactive: 0.059	inactive: -0.162	inactive: -0.088	inactive: 0.153	inactive: -0.123	inactive: 0.039	inactive: 0.042	inactive: -0.329	–	–
MT-ND1 (UniProt P03886)	inactive: -0.011	inactive: -0.179	inactive: 0.287	inactive: -0.039	–	inactive: -0.081	inactive: 0.056	inactive: 0.178	–	–
MRPS6 (UniProt P82932)	inactive: -0.038	inactive: -0.076	inactive: 0.117	inactive: 0.085	inactive: -0.016	inactive: 0.081	inactive: 0.048	inactive: -0.208	–	–
MRPS16 (UniProt Q9Y3D3)	inactive: 0.061	inactive: 0.014	inactive: 0.028	inactive: 0.159	inactive: -0.031	–	inactive: 0.001	inactive: -0.266	–	–
MTMR14 (UniProt Q8NCE2)	inactive: 0.033	inactive: 0.069	inactive: -0.054	inactive: 0.014	inactive: 0.144	inactive: 0.079	inactive: -0.03	inactive: 0.061	–	–
MYD88 isoform 6 (UniProt Q99836)	inactive: -0.027	inactive: -0.065	inactive: -0.033	–	inactive: 0.051	–	inactive: 0.183	–	–	–
MRPS25 (UniProt P82663)	inactive: -0.018	inactive: -0.082	inactive: -0.103	inactive: 0.165	inactive: -0.109	inactive: 0.121	inactive: -0.083	active: -0.438	–	–
MTHFSD isoform 3 (UniProt Q2M296)	inactive: -0.036	inactive: 0.087	–	inactive: 0.113	inactive: -0.075	inactive: -0.025	inactive: 0.167	inactive: -0.092	inactive: -0.053	inactive: -0.132
MRPS18B (UniProt Q9Y676)	inactive: -0.187	inactive: -0.047	inactive: 0.075	inactive: 0.145	inactive: -0.028	inactive: 0.157	inactive: 0.029	active: -0.397	–	–
MRPS31 (UniProt Q92665)	inactive: 0.063	inactive: 0.024	inactive: 0.027	inactive: 0.199	inactive: 0.121	inactive: 0.073	inactive: 0	active: -0.28	–	–
MSH6 (UniProt P52701)	inactive: 0.075	inactive: -0.427	inactive: 0.152	inactive: -0.018	inactive: -0.196	inactive: 0.185	inactive: -0.053	inactive: -0.087	–	–
MRPS12 (UniProt O15235)	inactive: 0.046	inactive: -0.075	inactive: 0.015	inactive: 0.311	inactive: 0.063	inactive: 0.022	inactive: 0.003	active: -0.65	–	–
MRPS27 isoform 2 (UniProt Q92552)	inactive: -0.017	inactive: -0.062	inactive: 0.005	inactive: 0.097	inactive: 0.094	inactive: 0.096	inactive: 0.013	active: -0.304	–	–
MSH2 (UniProt P43246)	inactive: 0.057	inactive: 0.04	inactive: 0.056	inactive: -0.038	inactive: -0.02	inactive: 0.117	inactive: -0.067	inactive: 0.09	–	–
MRPS5 (UniProt P82675)	inactive: 0.123	inactive: -0.061	inactive: 0.125	inactive: 0.169	inactive: -0.08	inactive: 0.131	inactive: 0.071	active: -0.451	–	–
MSTO1 (UniProt Q9BUK6)	inactive: -0.014	inactive: -0.081	inactive: 0.09	inactive: 0.025	inactive: -0.003	inactive: 0.009	inactive: 0.027	inactive: -0.053	–	–
MRPS26 (UniProt Q9BYN8)	inactive: 0.097	inactive: 0.005	inactive: 0.009	inactive: 0.291	inactive: 0.158	inactive: 0.065	inactive: 0.059	active: -0.421	–	–
MRPS10 (UniProt P82664)	inactive: 0.028	inactive: 0.005	inactive: -0.033	inactive: 0.08	inactive: 0.019	inactive: 0.002	inactive: 0.029	active: -0.265	–	–
MYH11 isoform 2 (UniProt P35749)	inactive: -0.026	inactive: -0.025	inactive: 0.01	inactive: -0.078	inactive: 0.014	inactive: 0.009	inactive: 0.057	inactive: -0.012	–	–
MT-ATP8 (UniProt P03928)	inactive: -0.042	inactive: 0.036	inactive: 0.254	–	inactive: -0.06	–	inactive: -0.1	–	inactive: -0.012	–
MSL1 (UniProt Q68DK7)	inactive: 0.092	inactive: 0	inactive: 0.049	–	inactive: 0.31	inactive: -0.162	inactive: -0.054	inactive: -0.078	–	–

Some entries already given, limited to log2 fold change [1].
Target	log2 fold change [1]
MRPS12 (UniProt O15235)	inactive: 0.046
MRPS27 isoform 2 (UniProt Q92552)	inactive: -0.017
